Some of the results follow.
Assays:
Test in all cases: log2 fold change, soluble protein after heating vs DMSO (PISA); higher = thermal stabilisation; K562 lysate, 10 uM; active = over 0.2 and 3.5 SD of the protein, either way, in both replicates (recomputed)
nilotinib = compound: Cc1cn(-c2cc(NC(=O)c3ccc(C)c(Nc4nccc(-c5cccnc5)n4)c3)cc(C(F)(F)F)c2)cn1 [nilotinib]
How it was run: (§1)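 Soluble protein was defined as the supernatant remaining after 21,000xg for 90 min, following pooling of heated aliquots and adjustment to 0.5% NP-40 at 4°C. Before that, crude K562 extract at 1 mg/mL protein in PBS pH 7.4 with 1 mM MgCl2 was treated with 10 μM compound for 30 min and heated for 3 min across 48°C-58°C. Quantification used TMTpro 16plex LC-MS/MS with channel sums equalised, and values are log-two fold changes in thermal stability relative to solvent controls from duplicates.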

Chains of the proteins cited; added tags and fusions are not shown. Lines headed by an entry give the natural chain unless they say otherwise; changes in a name come on top.
UniProt Q7Z3T8: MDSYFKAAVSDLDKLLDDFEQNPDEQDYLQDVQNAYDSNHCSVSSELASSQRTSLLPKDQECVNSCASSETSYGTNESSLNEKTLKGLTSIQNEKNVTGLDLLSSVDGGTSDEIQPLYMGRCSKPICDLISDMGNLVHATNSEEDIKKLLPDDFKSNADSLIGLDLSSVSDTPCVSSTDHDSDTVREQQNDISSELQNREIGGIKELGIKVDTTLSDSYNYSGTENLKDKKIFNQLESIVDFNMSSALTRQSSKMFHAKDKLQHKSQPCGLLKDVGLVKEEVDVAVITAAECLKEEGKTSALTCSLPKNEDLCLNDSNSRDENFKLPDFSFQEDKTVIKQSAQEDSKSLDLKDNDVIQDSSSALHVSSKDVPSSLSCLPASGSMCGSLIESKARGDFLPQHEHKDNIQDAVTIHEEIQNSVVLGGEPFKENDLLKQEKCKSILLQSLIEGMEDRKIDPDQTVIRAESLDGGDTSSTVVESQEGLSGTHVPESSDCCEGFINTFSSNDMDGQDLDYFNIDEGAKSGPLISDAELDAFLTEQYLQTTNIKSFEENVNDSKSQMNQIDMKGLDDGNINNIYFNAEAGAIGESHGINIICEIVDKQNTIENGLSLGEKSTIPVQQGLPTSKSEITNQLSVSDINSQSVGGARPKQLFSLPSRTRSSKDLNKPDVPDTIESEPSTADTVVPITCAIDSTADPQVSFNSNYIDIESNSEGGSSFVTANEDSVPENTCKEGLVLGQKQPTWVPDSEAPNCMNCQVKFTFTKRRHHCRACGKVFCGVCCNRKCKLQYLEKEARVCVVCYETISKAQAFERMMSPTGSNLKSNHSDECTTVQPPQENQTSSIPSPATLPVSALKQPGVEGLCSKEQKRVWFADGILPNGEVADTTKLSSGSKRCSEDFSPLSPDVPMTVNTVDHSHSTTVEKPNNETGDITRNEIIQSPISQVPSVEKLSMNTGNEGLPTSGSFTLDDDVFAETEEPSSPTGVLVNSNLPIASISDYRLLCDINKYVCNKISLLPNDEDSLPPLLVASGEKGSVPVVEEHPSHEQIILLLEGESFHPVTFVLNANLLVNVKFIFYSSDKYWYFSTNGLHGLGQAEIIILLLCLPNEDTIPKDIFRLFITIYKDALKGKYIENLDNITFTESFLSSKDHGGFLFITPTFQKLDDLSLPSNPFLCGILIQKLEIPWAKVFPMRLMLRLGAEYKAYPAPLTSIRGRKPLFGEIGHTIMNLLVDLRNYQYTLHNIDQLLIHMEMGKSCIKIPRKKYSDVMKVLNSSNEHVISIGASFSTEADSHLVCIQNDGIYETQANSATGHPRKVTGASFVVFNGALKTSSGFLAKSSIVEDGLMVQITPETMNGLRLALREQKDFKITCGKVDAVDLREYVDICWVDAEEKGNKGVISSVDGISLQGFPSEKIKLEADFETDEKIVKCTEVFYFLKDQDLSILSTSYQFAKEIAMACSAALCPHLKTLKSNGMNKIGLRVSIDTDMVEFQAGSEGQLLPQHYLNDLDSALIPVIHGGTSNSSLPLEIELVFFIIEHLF
UniProt Q8NBI6: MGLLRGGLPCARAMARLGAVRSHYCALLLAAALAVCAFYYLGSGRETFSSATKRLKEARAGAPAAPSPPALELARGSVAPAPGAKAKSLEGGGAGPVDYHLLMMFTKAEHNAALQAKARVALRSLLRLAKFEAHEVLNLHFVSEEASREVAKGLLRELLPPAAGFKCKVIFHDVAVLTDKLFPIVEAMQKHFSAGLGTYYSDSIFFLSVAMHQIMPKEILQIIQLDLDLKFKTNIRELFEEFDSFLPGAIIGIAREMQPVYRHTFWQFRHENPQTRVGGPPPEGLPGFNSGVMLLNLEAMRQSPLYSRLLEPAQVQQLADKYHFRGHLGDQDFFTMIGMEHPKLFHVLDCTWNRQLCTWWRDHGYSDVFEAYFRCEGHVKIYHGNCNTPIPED
UniProt Q6FIF0: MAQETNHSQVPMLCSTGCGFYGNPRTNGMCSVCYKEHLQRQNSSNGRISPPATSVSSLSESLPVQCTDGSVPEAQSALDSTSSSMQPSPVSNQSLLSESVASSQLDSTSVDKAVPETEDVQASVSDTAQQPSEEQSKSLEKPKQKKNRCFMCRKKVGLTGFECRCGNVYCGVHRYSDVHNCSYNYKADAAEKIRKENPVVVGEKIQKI
UniProt P18887, whole entry, looked up: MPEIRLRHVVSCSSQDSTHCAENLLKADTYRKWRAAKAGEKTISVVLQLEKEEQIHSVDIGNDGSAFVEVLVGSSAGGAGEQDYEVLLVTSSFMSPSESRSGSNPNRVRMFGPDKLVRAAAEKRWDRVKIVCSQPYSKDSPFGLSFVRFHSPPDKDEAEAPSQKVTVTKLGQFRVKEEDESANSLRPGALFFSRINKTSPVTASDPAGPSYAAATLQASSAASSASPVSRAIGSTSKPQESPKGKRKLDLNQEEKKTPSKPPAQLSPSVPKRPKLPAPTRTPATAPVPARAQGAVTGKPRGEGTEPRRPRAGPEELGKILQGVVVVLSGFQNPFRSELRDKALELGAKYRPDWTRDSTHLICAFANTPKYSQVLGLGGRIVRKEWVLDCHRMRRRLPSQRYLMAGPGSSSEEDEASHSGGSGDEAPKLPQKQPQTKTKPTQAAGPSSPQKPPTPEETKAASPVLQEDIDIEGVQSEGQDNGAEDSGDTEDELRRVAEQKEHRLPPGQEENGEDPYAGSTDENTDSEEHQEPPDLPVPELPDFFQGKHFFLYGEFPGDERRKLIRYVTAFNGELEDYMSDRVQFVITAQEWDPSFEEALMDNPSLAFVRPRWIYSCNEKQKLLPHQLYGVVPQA
UniProt Q96GY0: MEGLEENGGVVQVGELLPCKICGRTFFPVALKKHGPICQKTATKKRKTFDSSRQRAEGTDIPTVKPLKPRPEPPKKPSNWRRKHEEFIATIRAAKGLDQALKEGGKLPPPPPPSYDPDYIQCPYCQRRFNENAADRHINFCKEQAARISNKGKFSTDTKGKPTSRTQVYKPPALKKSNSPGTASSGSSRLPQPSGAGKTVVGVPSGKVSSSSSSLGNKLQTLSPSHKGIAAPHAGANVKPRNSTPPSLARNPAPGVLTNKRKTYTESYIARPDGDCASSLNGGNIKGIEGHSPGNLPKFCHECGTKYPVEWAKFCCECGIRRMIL
UniProt Q9NQH7: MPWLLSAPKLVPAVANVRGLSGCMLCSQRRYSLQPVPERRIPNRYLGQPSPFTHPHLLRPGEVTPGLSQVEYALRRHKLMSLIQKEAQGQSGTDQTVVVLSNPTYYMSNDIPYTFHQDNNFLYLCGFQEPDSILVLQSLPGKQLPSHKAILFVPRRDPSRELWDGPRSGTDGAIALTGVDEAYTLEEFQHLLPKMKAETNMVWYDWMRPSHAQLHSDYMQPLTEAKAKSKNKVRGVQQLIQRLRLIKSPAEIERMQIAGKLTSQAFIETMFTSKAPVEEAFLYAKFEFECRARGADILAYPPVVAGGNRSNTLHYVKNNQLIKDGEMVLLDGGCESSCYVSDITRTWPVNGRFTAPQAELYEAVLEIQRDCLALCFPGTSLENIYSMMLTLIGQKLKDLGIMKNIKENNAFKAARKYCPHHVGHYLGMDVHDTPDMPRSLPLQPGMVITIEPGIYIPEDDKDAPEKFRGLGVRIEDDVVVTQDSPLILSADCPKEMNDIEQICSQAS
UniProt Q9UIA9: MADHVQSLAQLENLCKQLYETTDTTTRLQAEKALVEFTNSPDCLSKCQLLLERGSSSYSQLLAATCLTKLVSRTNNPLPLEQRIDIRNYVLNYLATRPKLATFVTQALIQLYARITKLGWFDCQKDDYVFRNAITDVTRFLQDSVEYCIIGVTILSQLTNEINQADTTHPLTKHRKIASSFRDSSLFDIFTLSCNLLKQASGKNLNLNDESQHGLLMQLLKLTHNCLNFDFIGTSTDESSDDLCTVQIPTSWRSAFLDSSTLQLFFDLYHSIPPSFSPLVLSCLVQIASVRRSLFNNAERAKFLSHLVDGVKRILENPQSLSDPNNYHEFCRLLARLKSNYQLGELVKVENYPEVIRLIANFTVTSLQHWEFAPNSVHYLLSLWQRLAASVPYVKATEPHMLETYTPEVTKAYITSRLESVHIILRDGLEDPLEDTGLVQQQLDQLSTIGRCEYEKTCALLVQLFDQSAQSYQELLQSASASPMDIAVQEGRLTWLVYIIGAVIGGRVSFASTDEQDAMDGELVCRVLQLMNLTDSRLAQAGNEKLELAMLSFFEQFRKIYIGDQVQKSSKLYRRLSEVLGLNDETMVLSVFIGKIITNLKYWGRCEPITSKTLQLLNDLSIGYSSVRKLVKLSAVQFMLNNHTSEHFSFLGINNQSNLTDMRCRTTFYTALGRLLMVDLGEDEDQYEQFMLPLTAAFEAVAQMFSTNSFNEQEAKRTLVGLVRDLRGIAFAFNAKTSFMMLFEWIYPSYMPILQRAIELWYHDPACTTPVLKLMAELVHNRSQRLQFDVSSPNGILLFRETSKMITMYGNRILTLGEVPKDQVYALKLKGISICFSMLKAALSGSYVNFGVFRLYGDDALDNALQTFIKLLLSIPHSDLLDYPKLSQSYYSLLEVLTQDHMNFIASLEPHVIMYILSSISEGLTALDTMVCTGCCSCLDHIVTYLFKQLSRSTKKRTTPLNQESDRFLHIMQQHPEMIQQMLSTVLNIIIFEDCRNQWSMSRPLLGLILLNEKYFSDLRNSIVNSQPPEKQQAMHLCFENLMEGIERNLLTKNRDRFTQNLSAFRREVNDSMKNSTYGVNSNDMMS
UniProt P62258: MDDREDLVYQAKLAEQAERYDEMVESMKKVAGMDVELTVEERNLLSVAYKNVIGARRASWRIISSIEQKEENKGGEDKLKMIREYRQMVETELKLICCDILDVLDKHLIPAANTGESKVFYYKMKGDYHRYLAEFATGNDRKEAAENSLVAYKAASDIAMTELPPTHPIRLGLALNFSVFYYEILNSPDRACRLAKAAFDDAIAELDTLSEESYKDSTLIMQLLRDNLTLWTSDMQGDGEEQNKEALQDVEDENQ
UniProt Q9Y5A9: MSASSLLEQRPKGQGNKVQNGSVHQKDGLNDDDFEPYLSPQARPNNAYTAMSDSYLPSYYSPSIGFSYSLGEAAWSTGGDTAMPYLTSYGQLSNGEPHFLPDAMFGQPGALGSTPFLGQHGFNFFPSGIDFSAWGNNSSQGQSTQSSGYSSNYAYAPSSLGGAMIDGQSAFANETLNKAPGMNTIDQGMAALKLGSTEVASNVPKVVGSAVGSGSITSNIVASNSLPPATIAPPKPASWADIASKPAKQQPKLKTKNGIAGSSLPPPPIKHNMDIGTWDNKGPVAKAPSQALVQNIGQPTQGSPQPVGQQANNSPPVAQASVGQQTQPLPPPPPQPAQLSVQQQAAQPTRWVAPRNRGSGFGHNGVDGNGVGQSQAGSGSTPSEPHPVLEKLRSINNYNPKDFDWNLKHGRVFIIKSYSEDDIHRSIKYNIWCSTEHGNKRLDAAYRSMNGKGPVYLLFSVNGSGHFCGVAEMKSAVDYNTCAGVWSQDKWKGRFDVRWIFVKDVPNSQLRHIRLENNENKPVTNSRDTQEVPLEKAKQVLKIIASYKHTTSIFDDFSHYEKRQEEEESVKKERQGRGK
UniProt P61981: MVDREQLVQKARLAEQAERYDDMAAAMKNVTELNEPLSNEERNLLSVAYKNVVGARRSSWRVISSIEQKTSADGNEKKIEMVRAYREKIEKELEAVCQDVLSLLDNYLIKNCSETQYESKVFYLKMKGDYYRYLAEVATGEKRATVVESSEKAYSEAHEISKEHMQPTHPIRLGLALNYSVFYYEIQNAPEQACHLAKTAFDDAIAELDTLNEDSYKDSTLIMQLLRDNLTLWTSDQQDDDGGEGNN
UniProt Q5D1E8: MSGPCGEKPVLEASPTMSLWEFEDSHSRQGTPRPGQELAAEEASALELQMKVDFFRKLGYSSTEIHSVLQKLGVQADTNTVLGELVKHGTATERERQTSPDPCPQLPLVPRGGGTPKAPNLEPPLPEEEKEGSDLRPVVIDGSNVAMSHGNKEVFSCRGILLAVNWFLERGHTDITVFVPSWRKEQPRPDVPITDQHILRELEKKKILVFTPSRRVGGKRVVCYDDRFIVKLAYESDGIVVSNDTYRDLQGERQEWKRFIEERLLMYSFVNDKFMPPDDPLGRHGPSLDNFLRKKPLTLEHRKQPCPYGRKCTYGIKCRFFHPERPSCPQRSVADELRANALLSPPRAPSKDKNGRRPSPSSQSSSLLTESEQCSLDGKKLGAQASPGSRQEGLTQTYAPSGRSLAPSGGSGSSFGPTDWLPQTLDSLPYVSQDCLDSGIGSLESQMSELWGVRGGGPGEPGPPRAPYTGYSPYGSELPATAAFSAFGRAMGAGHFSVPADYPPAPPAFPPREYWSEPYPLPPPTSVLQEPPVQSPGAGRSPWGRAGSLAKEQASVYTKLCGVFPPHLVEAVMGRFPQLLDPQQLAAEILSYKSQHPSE
UniProt Q9NRH1: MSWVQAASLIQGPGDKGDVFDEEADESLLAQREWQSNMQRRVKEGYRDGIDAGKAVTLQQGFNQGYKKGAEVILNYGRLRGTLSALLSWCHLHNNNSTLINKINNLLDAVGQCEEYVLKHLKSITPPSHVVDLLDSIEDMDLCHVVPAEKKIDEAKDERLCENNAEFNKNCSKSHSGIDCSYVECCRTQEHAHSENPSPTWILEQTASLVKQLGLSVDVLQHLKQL

[1] = compound: Cc1nc(Nc2n[nH]c3c2CN(C(=O)N[C@H](CN(C)C)c2ccccc2)C3(C)C)c2sccc2n1
How it was run: as §1

dasatinib = compound: Cc1nc(Nc2ncc(C(=O)Nc3c(C)cccc3Cl)s2)cc(N2CCN(CCO)CC2)n1 [dasatinib]
How it was run: as §1

[2] = compound: Cc1ncc(-c2ccnc(Nc3ccc(S(C)(=O)=O)cc3)n2)n1C(C)C
How it was run: as §1

[3] = compound: Cn1cc(-c2ccc3c(c2)CCN3C(=O)Cc2cccc(C(F)(F)F)c2)c2c(N)ncnc21
How it was run: as §1

quisinostat = compound: Cn1cc(CNCC2CCN(c3ncc(C(=O)NO)cn3)CC2)c2ccccc21 [quisinostat]
How it was run: as §1

tipifarnib = compound: Cn1cncc1[C@@](N)(c1ccc(Cl)cc1)c1ccc2c(c1)c(-c1cccc(Cl)c1)cc(=O)n2C [tipifarnib]
How it was run: as §1

[4] = compound: NC(=O)Nc1cc(-c2cccc(F)c2)sc1C(=O)N[C@H]1CCCNC1
How it was run: as §1

[5] = compound: NC(=O)c1cnc(N[C@@H]2CCCC[C@@H]2N)nc1Nc1cccc(-n2nccn2)c1
How it was run: as §1

[6] = compound: NC1(c2ccc(-c3nc4ccn5c(=O)[nH]nc5c4cc3-c3ccccc3)cc2)CCC1
How it was run: as §1

[7] = compound: NCC(=O)Nc1ccc(-n2nc(C(F)(F)F)cc2-c2ccc3c(ccc4ccccc43)c2)cc1
How it was run: as §1

vorinostat = compound: O=C(CCCCCCC(=O)Nc1ccccc1)NO [vorinostat]
How it was run: as §1

silmitasertib = compound: O=C(O)c1ccc2c(c1)nc(Nc1cccc(Cl)c1)c1ccncc12 [silmitasertib]
How it was run: as §1

[8] = compound: O=C1NC(=O)C(c2cnc3ccccn23)=C1c1cn2c3c(cc(F)cc13)CN(C(=O)N1CCCCC1)CC2
How it was run: as §1

entospletinib = compound: c1cn2cc(-c3ccc4cn[nH]c4c3)nc(Nc3ccc(N4CCOCC4)cc3)c2n1 [entospletinib]
How it was run: as §1

Measured: log2 fold change

YIPF6 (UniProt Q96EC8)
inactive: nilotinib 0.213 | [1] 0.053 | dasatinib -0.009 | [2] -0.115 | [3] 0.039 | quisinostat 0.151 | tipifarnib -0.065 | [4] -0.014 | [5] -0.055 | [6] -0.051 | [7] -0.073 | vorinostat -0.015 | silmitasertib -0.095 | [8] -0.016 | entospletinib -0.11

XRCC6 (UniProt P12956)
inactive: nilotinib -0.007 | [1] -0.014 | dasatinib -0.008 | [2] -0.007 | [3] 0.014 | quisinostat 0.03 | tipifarnib -0.01 | [4] 0.013 | [5] 0.001 | [6] -0.011 | [7] 0.025 | vorinostat 0.049 | silmitasertib 0.015 | [8] 0.012 | entospletinib 0.008

ZFYVE16 (UniProt Q7Z3T8)
inactive: nilotinib 0.005 | [1] -0.01 | dasatinib 0.003 | [2] 0.022 | [3] 0.014 | quisinostat -0.011 | tipifarnib -0.011 | [4] 0.016 | [5] 0.019 | [6] -0.019 | [7] 0.021 | vorinostat -0.04 | silmitasertib 0.018 | [8] -0.004 | entospletinib -0.025

YJU2 (UniProt Q9BW85)
inactive: nilotinib 0.023 | [1] -0.013 | dasatinib 0.024 | [2] -0.081 | [3] 0.027 | quisinostat 0.005 | tipifarnib 0.007 | [4] -0.034 | [5] -0.018 | [6] 0.008 | [7] 0.003 | vorinostat 0.091 | silmitasertib -0.049 | [8] -0.019 | entospletinib -0.002

XXYLT1 (UniProt Q8NBI6)
inactive: nilotinib 0.018 | [1] 0.002 | dasatinib -0.044 | [2] 0.007 | [3] 0.067 | quisinostat -0.019 | tipifarnib -0.084 | [4] 0.034 | [5] 0.004 | [6] -0.026 | [7] 0.034 | vorinostat 0.166 | silmitasertib -0.012 | [8] 0.029 | entospletinib -0.007

ZFAND6 (UniProt Q6FIF0)
inactive: nilotinib -0.059 | [1] -0.065 | dasatinib -0.006 | [2] 0.017 | [3] -0.047 | quisinostat -0.013 | tipifarnib 0.099 | [4] 0.031 | [5] -0.083 | [6] -0.022 | [7] 0.011 | vorinostat 0.057 | silmitasertib -0.08 | [8] 0.033 | entospletinib -0.035

XRCC1 (UniProt P18887)
inactive: nilotinib -0.01 | [1] 0.035 | dasatinib -0.026 | [2] -0.016 | [3] 0.037 | quisinostat -0.019 | tipifarnib 0.023 | [4] 0.002 | [5] -0.004 | [6] 0.026 | [7] 0.008 | vorinostat -0.062 | silmitasertib 0.051 | [8] 0.006 | entospletinib 0.041

ZC2HC1A (UniProt Q96GY0)
inactive: nilotinib 0 | [1] 0.005 | dasatinib -0.085 | [2] 0.002 | [3] 0.1 | quisinostat -0.082 | tipifarnib -0.02 | [4] -0.014 | [5] 0.04 | [6] -0.092 | [7] 0.104 | vorinostat -0.066 | silmitasertib 0.054 | [8] -0.008 | entospletinib -0.005

XPNPEP3 (UniProt Q9NQH7)
inactive: nilotinib 0 | [1] -0.03 | dasatinib -0.013 | [2] 0.026 | [3] -0.029 | quisinostat 0.182 | tipifarnib 0.083 | [4] 0.02 | [5] -0.043 | [6] -0.025 | [7] -0.004 | vorinostat 0.217 | silmitasertib 0.014 | [8] -0.01 | entospletinib 0.043

XPO7 (UniProt Q9UIA9)
inactive: nilotinib 0.015 | [1] 0 | dasatinib -0.006 | [2] -0.012 | [3] 0.003 | quisinostat -0.019 | tipifarnib -0.004 | [4] -0.004 | [5] 0.007 | [6] -0.01 | [7] 0.004 | vorinostat -0.167 | silmitasertib 0.001 | [8] -0.019 | entospletinib 0.018

ZEB2 (UniProt O60315)
inactive: nilotinib 0.196 | [1] 0.168 | dasatinib -0.015 | [2] -0.14 | [3] 0.013 | quisinostat -0.013 | tipifarnib -0.18 | [4] 0.006 | [5] 0.058 | [6] 0.03 | [7] 0.011 | vorinostat -0.122 | silmitasertib -0.038 | [8] -0.033 | entospletinib -0.076

YWHAE (UniProt P62258)
inactive: nilotinib 0.008 | [1] -0.011 | dasatinib 0.031 | [2] -0.023 | [3] 0 | quisinostat 0.003 | tipifarnib 0 | [4] -0.01 | [5] 0.005 | [6] 0.005 | [7] 0.018 | vorinostat 0.112 | silmitasertib 0.003 | [8] -0.018 | entospletinib -0.008

ZFAND2B (UniProt Q8WV99)
inactive: nilotinib -0.072 | [1] 0.056 | dasatinib 0.041 | [2] -0.019 | [3] -0.001 | quisinostat 0.011 | tipifarnib -0.003 | [4] -0.1 | [5] -0.03 | [6] 0.062 | [7] 0.07 | vorinostat -0.15 | silmitasertib 0.055 | [8] -0.057 | entospletinib -0.011

YTHDF2 (UniProt Q9Y5A9)
inactive: nilotinib -0.181 | [1] 0.008 | dasatinib 0 | [2] 0.025 | [3] 0.003 | quisinostat 0.035 | tipifarnib -0.303 | [4] 0.075 | [5] 0.017 | [6] 0.002 | [7] 0.05 | vorinostat -0.024 | silmitasertib -0.036 | [8] -0.16 | entospletinib -0.022

YWHAG (UniProt P61981)
inactive: nilotinib 0.046 | [1] -0.008 | dasatinib 0.051 | [2] 0.083 | [3] -0.009 | quisinostat 0.109 | tipifarnib 0.013 | [4] -0.036 | [5] -0.009 | [6] -0.001 | [7] -0.057 | vorinostat 0.144 | silmitasertib -0.014 | [8] 0.028 | entospletinib -0.001

YWHAZ (UniProt P63104)
inactive: nilotinib 0.01 | [1] -0.004 | dasatinib 0.053 | [2] 0.029 | [3] -0.012 | quisinostat 0.031 | tipifarnib 0.003 | [4] -0.038 | [5] -0.03 | [6] 0.02 | [7] -0.005 | vorinostat 0.116 | silmitasertib -0.012 | [8] -0.005 | entospletinib 0.001

ZBTB14 (UniProt O43829)
inactive: nilotinib 0.024 | [1] 0.049 | dasatinib 0.055 | [2] -0.111 | [3] 0.112 | quisinostat 0.038 | tipifarnib 0.211 | [4] 0.028 | [5] 0.064 | [6] 0.013 | vorinostat 0.257 | silmitasertib 0.007 | [8] -0.213

ZBTB24 (UniProt O43167)
inactive: nilotinib 0.032 | [1] -0.243 | dasatinib -0.038 | [2] 0.099 | [3] 0.014 | quisinostat 0.003 | tipifarnib -0.114 | [4] 0.004 | [5] -0.021 | [6] 0.032 | vorinostat -0.041 | silmitasertib -0.076 | [8] 0.017 | entospletinib 0.022

ZEB1 isoform 2 (UniProt P37275)
inactive: dasatinib -0.263 | [3] 0.047 | quisinostat -0.346 | [4] 0.011 | [5] -0.092 | [6] 0.009 | [7] -0.181 | vorinostat 0.085 | silmitasertib 0.037 | [8] -0.031

Quoted from the listing (2 entries):
ZBTB14 (UniProt O43829)
inactive: nilotinib 0.024 | [1] 0.049 | dasatinib 0.055 | [2] -0.111 | [3] 0.112 | quisinostat 0.038 | tipifarnib 0.211 | [4] 0.028 | [5] 0.064 | [6] 0.013 | vorinostat 0.257 | silmitasertib 0.007 | [8] -0.213

ZBTB24 (UniProt O43167)
inactive: nilotinib 0.032 | [1] -0.243 | dasatinib -0.038 | [2] 0.099 | [3] 0.014 | quisinostat 0.003 | tipifarnib -0.114 | [4] 0.004 | [5] -0.021 | [6] 0.032 | vorinostat -0.041 | silmitasertib -0.076 | [8] 0.017 | entospletinib 0.022

Next records:

ZC3H12A (UniProt Q5D1E8)
inactive: nilotinib -0.364 | [1] 0.363 | dasatinib 0.075 | [2] 0.027 | [3] -0.025 | quisinostat -0.119 | tipifarnib 0.039 | [4] 0.125 | [6] 0.056 | vorinostat -0.107 | silmitasertib -0.048 | [8] 0.069 | entospletinib -0.058

YAE1 (UniProt Q9NRH1)
inactive: nilotinib 0.01 | [1] 0.077 | dasatinib 0.056 | [2] 0.083 | [3] 0 | quisinostat -0.031 | tipifarnib 0.064 | [4] 0.029 | [6] 0.092 | [7] 0.036 | vorinostat -0.044 | silmitasertib -0.018 | [8] -0.015 | entospletinib 0.059

From the supplement of paper PMC10849652
